Laboratory results reported in the supplement of paper PMC7877785.
± gives the uncertainty stated by the source. Many of these values have a large error.

Assay: self-splicing fitness, log relative to wild type (ln ratio); higher = more splicing; Tetrahymena group I intron in knt gene, E. coli kanamycin selection, DiMSum; sequences stand for … in CUCUCU…GGAGGGAAAAGUUAUCAGGCAUGCACCUGGUAGCUAGUCUUUAAACCAAUAGAUUGCAUCGGUUUAAAAGGCAAGACCGUCAAAUUGCGGGAAAGGGGUCAACAGCCGUUCAGUACCAAGUCUCAGGGGAAACUUUGAGAUGGCCUUGCAAAGGGUAUGGUAAUAAGCUGACGGACAUGGUCCUAACCACGCAGCCAAGUCCUAAGUCAACAGAUCUUCUGUUGAUAUGGAUGCAGUUCACAGACUAAAUGUCGGUCGGGGAAGAUGUAUUCUUCUCAUAAGAUAUAGUCGGACCUCUCCUUAAUGGGAGCUAGCGGAUGAAGUGAUGCAACACUGGAGCCGCUGGGAACUAAUUUGUAUGCGAAAGUAUAUUGAUUAGUUUUGGAGUACUCGUGGUCG
Method in brief: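 Colonies from six replicate transformations of E. coli BL21(DE3) were pooled and amplicon-sequenced on an Illumina HiSeq 2500. The library placed an intron with all eight P1ex-region nucleotides randomised inside the knt kanamycin-resistance gene on pET-22b(+), and cells grew overnight at 37°C or 30°C on LB agar with or without 25 μg/mL kanamycin (plus 100 μg/mL carbenicillin, 50 μM IPTG, 0.2% rhamnose). Fitness is the DiMSum error-weighted combination of wild-type-normalised replicate fold changes, kanamycin versus none.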

CUGAAGCAAUAUUACGCCGC
self-splicing fitness (ln) (37 °C): -1.71 ± 0.56

CCCCAGCAAUAUUACGCCGA
self-splicing fitness (ln) (30 °C): -4.67 ± 1

ACUAAGCAAUAUUACGCCUA
self-splicing fitness (ln) (30 °C): -1.41 ± 0.13
self-splicing fitness (ln) (37 °C): -0.734 ± 0.13

GCGCAGCAAUAUUACGGCAG
self-splicing fitness (ln) (30 °C): -3.47 ± 0.15
self-splicing fitness (ln) (37 °C): -2.85 ± 0.19

GUCGAGCAAUAUUACGCAGC
self-splicing fitness (ln) (30 °C): -1.65 ± 0.67
self-splicing fitness (ln) (37 °C): -0.681 ± 1.4

GCAGAGCAAUAUUACGACCG
self-splicing fitness (ln) (37 °C): -1.53 ± 0.55

UUGGAGCAAUAUUACGUAGC
self-splicing fitness (ln) (30 °C): -4.44 ± 1
self-splicing fitness (ln) (37 °C): -0.234 ± 1

CUGUAGCAAUAUUACGCCUA
self-splicing fitness (ln) (30 °C): -2.77 ± 0.62
self-splicing fitness (ln) (37 °C): -2.23 ± 0.55

AAGAAGCAAUAUUACGAGGG
self-splicing fitness (ln) (30 °C): -3.5 ± 0.3
self-splicing fitness (ln) (37 °C): -2.32 ± 0.35

CCGUAGCAAUAUUACGCCCA
self-splicing fitness (ln) (30 °C): -2.81 ± 1.1
self-splicing fitness (ln) (37 °C): -2.54 ± 0.48

CUCGAGCAAUAUUACGAGGC
self-splicing fitness (ln) (37 °C): -0.463 ± 0.87

CCCUAGCAAUAUUACGCGCC
self-splicing fitness (ln) (30 °C): -4.44 ± 0.59

UGUGAGCAAUAUUACGCGGC
self-splicing fitness (ln) (30 °C): -3.48 ± 1.1
self-splicing fitness (ln) (37 °C): -2.16 ± 1.1

AUUAAGCAAUAUUACGAAUC
self-splicing fitness (ln) (30 °C): -3.75 ± 0.52
self-splicing fitness (ln) (37 °C): -0.919 ± 0.72

AGAAAGCAAUAUUACGUAUC
self-splicing fitness (ln) (30 °C): -3.62 ± 0.3
self-splicing fitness (ln) (37 °C): -2.34 ± 0.24

CAAUAGCAAUAUUACGUAGU
self-splicing fitness (ln) (30 °C): -3.31 ± 0.29
self-splicing fitness (ln) (37 °C): -2.44 ± 0.22

AUGGAGCAAUAUUACGGAUG
self-splicing fitness (ln) (30 °C): -4.35 ± 0.51
self-splicing fitness (ln) (37 °C): -2.29 ± 0.37

UGUUAGCAAUAUUACGAGAC
self-splicing fitness (ln) (30 °C): -3.17 ± 0.37
self-splicing fitness (ln) (37 °C): -2.12 ± 0.77

ACUGAGCAAUAUUACGGUCC
self-splicing fitness (ln) (30 °C): -3.17 ± 0.53

CGUCAGCAAUAUUACGAACG
self-splicing fitness (ln) (30 °C): -2.55 ± 0.17
self-splicing fitness (ln) (37 °C): -1.32 ± 0.18

UCGUAGCAAUAUUACGGCUC
self-splicing fitness (ln) (30 °C): -3.78 ± 0.52

AGACAGCAAUAUUACGCCAC
self-splicing fitness (ln) (30 °C): -4.13 ± 0.72
self-splicing fitness (ln) (37 °C): -2.13 ± 0.56

GGCCAGCAAUAUUACGUCCU
self-splicing fitness (ln) (30 °C): -1.47 ± 0.21
self-splicing fitness (ln) (37 °C): -0.4 ± 0.17

UGCGAGCAAUAUUACGAUCC
self-splicing fitness (ln) (30 °C): -3.6 ± 0.73

UGAUAGCAAUAUUACGAACC
self-splicing fitness (ln) (30 °C): -2.25 ± 1.1

GGAGAGCAAUAUUACGGGCU
self-splicing fitness (ln) (37 °C): -2.92 ± 0.53

CUUAAGCAAUAUUACGCAAA
self-splicing fitness (ln) (37 °C): -1.96 ± 0.5

UAUAAGCAAUAUUACGCCGG
self-splicing fitness (ln) (30 °C): -0.545 ± 0.16
self-splicing fitness (ln) (37 °C): -0.0733 ± 0.18

GAAUAGCAAUAUUACGACCC
self-splicing fitness (ln) (37 °C): -0.259 ± 0.51

GACCAGCAAUAUUACGAGCG
self-splicing fitness (ln) (30 °C): -2.08 ± 0.067
self-splicing fitness (ln) (37 °C): -0.434 ± 0.077

GCGUAGCAAUAUUACGUACG
self-splicing fitness (ln) (30 °C): -3.93 ± 0.18
self-splicing fitness (ln) (37 °C): -2.88 ± 0.17

UUGGAGCAAUAUUACGUAUA
self-splicing fitness (ln) (37 °C): -2.15 ± 0.79

CGGGAGCAAUAUUACGUGAA
self-splicing fitness (ln) (30 °C): -3.92 ± 0.52

CUGGAGCAAUAUUACGACUC
self-splicing fitness (ln) (30 °C): -0.525 ± 0.72

UUUGAGCAAUAUUACGCCUA
self-splicing fitness (ln) (37 °C): -0.858 ± 0.64

CCUAAGCAAUAUUACGCAGC
self-splicing fitness (ln) (30 °C): -3.07 ± 0.29
self-splicing fitness (ln) (37 °C): -2.46 ± 0.24

CAGAAGCAAUAUUACGACCC
self-splicing fitness (ln) (30 °C): -2.17 ± 0.87

CCUCAGCAAUAUUACGCGGU
self-splicing fitness (ln) (30 °C): -3.37 ± 0.19
self-splicing fitness (ln) (37 °C): -2.98 ± 0.33

GGUAAGCAAUAUUACGGAGG
self-splicing fitness (ln) (30 °C): -3.79 ± 0.59

UGCUAGCAAUAUUACGCCAG
self-splicing fitness (ln) (30 °C): -3.41 ± 0.56

GAUAAGCAAUAUUACGCUUA
self-splicing fitness (ln) (30 °C): -3.59 ± 0.31
self-splicing fitness (ln) (37 °C): -2.91 ± 0.23

UGAGAGCAAUAUUACGCCGU
self-splicing fitness (ln) (37 °C): -2.2 ± 0.51

CCAUAGCAAUAUUACGCACC
self-splicing fitness (ln) (37 °C): -2.13 ± 0.63

AUGUAGCAAUAUUACGGCUC
self-splicing fitness (ln) (37 °C): 0.00657 ± 0.52

AUUGAGCAAUAUUACGGGGU
self-splicing fitness (ln) (30 °C): -3.33 ± 0.25
self-splicing fitness (ln) (37 °C): -3.44 ± 0.27

GGGGAGCAAUAUUACGGUUC
self-splicing fitness (ln) (30 °C): -4.54 ± 0.51
self-splicing fitness (ln) (37 °C): -2.04 ± 0.59

AAACAGCAAUAUUACGACAU
self-splicing fitness (ln) (30 °C): -0.514 ± 0.011
self-splicing fitness (ln) (37 °C): -0.112 ± 0.032

GUUGAGCAAUAUUACGAAUG
self-splicing fitness (ln) (30 °C): -4.07 ± 0.51

UCUGAGCAAUAUUACGACCA
self-splicing fitness (ln) (30 °C): -2.73 ± 0.8
self-splicing fitness (ln) (37 °C): 0.0535 ± 0.77

GUGGAGCAAUAUUACGUACC
self-splicing fitness (ln) (30 °C): -2.79 ± 0.57
self-splicing fitness (ln) (37 °C): -1.01 ± 0.53

UAAUAGCAAUAUUACGGAUC
self-splicing fitness (ln) (30 °C): -3.2 ± 0.77

CUCGAGCAAUAUUACGAUCG
self-splicing fitness (ln) (30 °C): -3.43 ± 0.61

UGUUAGCAAUAUUACGGUGC
self-splicing fitness (ln) (30 °C): -3.76 ± 0.43
self-splicing fitness (ln) (37 °C): -2.88 ± 0.32

UACUAGCAAUAUUACGCGCC
self-splicing fitness (ln) (30 °C): -1.73 ± 0.91

UUUGAGCAAUAUUACGCGCA
self-splicing fitness (ln) (30 °C): -3.19 ± 1.2

GUUAAGCAAUAUUACGUAUA
self-splicing fitness (ln) (30 °C): -1.79 ± 0.14
self-splicing fitness (ln) (37 °C): -1.54 ± 0.15

UCCAAGCAAUAUUACGCGAC
self-splicing fitness (ln) (37 °C): -2.84 ± 0.54

GUCAAGCAAUAUUACGCGUU
self-splicing fitness (ln) (30 °C): -2.07 ± 0.076
self-splicing fitness (ln) (37 °C): -0.761 ± 0.097

AAUGAGCAAUAUUACGGGUA
self-splicing fitness (ln) (30 °C): -4.41 ± 0.54

GGCAAGCAAUAUUACGACCC
self-splicing fitness (ln) (30 °C): -3.48 ± 1.1
self-splicing fitness (ln) (37 °C): -0.168 ± 0.66

UUCCAGCAAUAUUACGAGCC
self-splicing fitness (ln) (30 °C): -3.5 ± 0.75
self-splicing fitness (ln) (37 °C): -0.681 ± 1.4

UGAGAGCAAUAUUACGCACU
self-splicing fitness (ln) (30 °C): -3.11 ± 0.32
self-splicing fitness (ln) (37 °C): -2.02 ± 0.21

GGGAAGCAAUAUUACGUUCC
self-splicing fitness (ln) (37 °C): -2.68 ± 0.54

GGACAGCAAUAUUACGUCCC
self-splicing fitness (ln) (37 °C): -1.62 ± 0.55

CUCAAGCAAUAUUACGCCGC
self-splicing fitness (ln) (30 °C): -4.16 ± 1
self-splicing fitness (ln) (37 °C): -2.1 ± 0.79

UUAGAGCAAUAUUACGGACU
self-splicing fitness (ln) (30 °C): -4.12 ± 1
self-splicing fitness (ln) (37 °C): -1.37 ± 0.71

CGCGAGCAAUAUUACGUCCA
self-splicing fitness (ln) (30 °C): -2.97 ± 0.75

GGGAAGCAAUAUUACGUCAA
self-splicing fitness (ln) (37 °C): -2.08 ± 0.56

AAUGAGCAAUAUUACGAUCA
self-splicing fitness (ln) (30 °C): -2.53 ± 0.58

GCGGAGCAAUAUUACGAGAG
self-splicing fitness (ln) (30 °C): -3.58 ± 1

UAGAAGCAAUAUUACGUAAC
self-splicing fitness (ln) (30 °C): -2.25 ± 0.84
self-splicing fitness (ln) (37 °C): -0.493 ± 0.53

UACGAGCAAUAUUACGGCAC
self-splicing fitness (ln) (30 °C): -3.06 ± 0.76

AAGGAGCAAUAUUACGCAGA
self-splicing fitness (ln) (30 °C): -3.36 ± 0.61

UAGAAGCAAUAUUACGCUAC
self-splicing fitness (ln) (30 °C): -4.14 ± 0.72

AGGGAGCAAUAUUACGUCGC
self-splicing fitness (ln) (37 °C): -2.64 ± 0.54

UCCGAGCAAUAUUACGAGGU
self-splicing fitness (ln) (37 °C): -2.84 ± 0.54

AGUGAGCAAUAUUACGCUCU
self-splicing fitness (ln) (30 °C): -3.96 ± 1

CUUCAGCAAUAUUACGAAAC
self-splicing fitness (ln) (37 °C): -2.51 ± 0.55

UUGGAGCAAUAUUACGCCCG
self-splicing fitness (ln) (37 °C): 0.254 ± 1.2

GCCGAGCAAUAUUACGAAAG
self-splicing fitness (ln) (37 °C): -3.16 ± 0.74

CUCGAGCAAUAUUACGAUAC
self-splicing fitness (ln) (30 °C): -3.88 ± 0.59

UCGUAGCAAUAUUACGUAAC
self-splicing fitness (ln) (37 °C): -2.23 ± 0.51

AUUGAGCAAUAUUACGUUUC
self-splicing fitness (ln) (30 °C): -3.85 ± 0.73

GGAUAGCAAUAUUACGUUAG
self-splicing fitness (ln) (30 °C): -4.44 ± 0.6

UGGAAGCAAUAUUACGGAAC
self-splicing fitness (ln) (30 °C): -1.67 ± 0.91
self-splicing fitness (ln) (37 °C): 0.454 ± 0.58

CAAGAGCAAUAUUACGGGCU
self-splicing fitness (ln) (30 °C): -3.07 ± 0.67

AUUGAGCAAUAUUACGAGAC
self-splicing fitness (ln) (30 °C): -2.09 ± 1.4

GUUUAGCAAUAUUACGGACC
self-splicing fitness (ln) (37 °C): -2.3 ± 0.78

UUUGAGCAAUAUUACGCAGU
self-splicing fitness (ln) (37 °C): -2.28 ± 0.55

AAAUAGCAAUAUUACGCUCU
self-splicing fitness (ln) (30 °C): -0.111 ± 0.075
self-splicing fitness (ln) (37 °C): -0.0401 ± 0.091

GAAAAGCAAUAUUACGCCUC
self-splicing fitness (ln) (37 °C): -2.29 ± 1.1

GACGAGCAAUAUUACGUCGA
self-splicing fitness (ln) (37 °C): -2.11 ± 0.55

AGUGAGCAAUAUUACGCUGG
self-splicing fitness (ln) (30 °C): -4.44 ± 0.6

CGGUAGCAAUAUUACGAUGA
self-splicing fitness (ln) (30 °C): -1.38 ± 0.13
self-splicing fitness (ln) (37 °C): -0.66 ± 0.16

UUCGAGCAAUAUUACGCUUG
self-splicing fitness (ln) (37 °C): -1.92 ± 0.57

ACUGAGCAAUAUUACGAUUG
self-splicing fitness (ln) (30 °C): -4.11 ± 0.52
